Data as given in PubChem BioAssay AID686938 (Drosophila RNAi Screening Center, 2013)

Assay: 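Looking for CRAC channel components and the factors controlling them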 (primary screen)
System: Drosophila S2R+ cells
Reagent: long dsRNA against Drosophila genes, about 0.25 µg dsRNA per well, roughly 10,000 cells
Timing: 5 days of knock-down before the calcium assay
Challenge: thapsigargin (SERCA pump blocker) to empty calcium stores; entry signal taken 4 min after adding it
Measurement: 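Per-well fluo-4 fluorescence in two replicates, unnormalised, measured in resting cells and 4 min after store depletion by the SERCA blocker thapsigargin; ratio of the two present in few wells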
Reading the numbers: calcium entry signal: higher = stronger calcium signal after store depletion; resting calcium signal: higher = higher resting calcium signal
Hit rule: 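Called when the plate z-score of the entry-to-rest ratio, mean of duplicates, falls below −3; wells with low overall dye signal (Fmax z below −2) or more than five off-targets excluded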
Calls: active = strongly reduced calcium entry; inactive = no strong reduction
The deposit covers about 23,000 reagents; below is a random part of those with a known target gene and a result. Of all reagents, 75 (0.33%) got an active call. 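Raw plate signals without normalisation; calls rest on plate z-scores that were not deposited; ratio present for only 364 wells.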 Unmarked entries are inactive. A plus sign joins genes that one reagent is predicted to hit. Reagent sequences are not shown. The record does not give: the dose of the treatment.

target gene | dsRNA | calcium entry signal, replicate 1 (fluorescence units) | calcium entry signal, replicate 2 (fluorescence units) | resting calcium signal, replicate 1 (fluorescence units) | resting calcium signal, replicate 2 (fluorescence units)
MED4 | DRSC11014 | 5.04e7 | 3.11e7 | 3.27e7 | 1.35e7
Spn27A | DRSC03608 | 2.93e7 | 2.79e7 | 1.41e7 | 1.44e7
bcd + CR14578 | DRSC20984 | 5.46e7 | 4.14e7 | 2.30e7 | 1.67e7
CG43085 | DRSC09497 | 3.45e7 | 3.02e7 | 1.60e7 | 1.60e7
f-cup | DRSC14139 | 2.28e7 | 2.40e7 | 1.12e7 | 1.18e7
CG14331 | DRSC14810 | 3.67e7 | 5.00e7 | 1.71e7 | 6.70e7
CG4822 | DRSC00669 | 3.44e7 | – | 1.71e7 | –
Sardh | DRSC06981 | 3.24e7 | 3.74e7 | 1.51e7 | 1.75e7
Slc25A46a | DRSC20125 | 4.16e7 | 4.81e7 | 1.94e7 | 2.22e7
Atg2 | DRSC08273 | 4.31e7 | 3.63e7 | 2.13e7 | 1.72e7
CG7903 | DRSC16338 | 4.20e7 | 5.52e7 | 2.20e7 | 2.51e7

Next part; the last 3 above are carried over.
target gene | dsRNA | calcium entry signal, replicate 1 (fluorescence units) | calcium entry signal, replicate 2 (fluorescence units) | resting calcium signal, replicate 1 (fluorescence units) | resting calcium signal, replicate 2 (fluorescence units)
Slc25A46a | DRSC20125 | 4.16e7 | 4.81e7 | 1.94e7 | 2.22e7
Atg2 | DRSC08273 | 4.31e7 | 3.63e7 | 2.13e7 | 1.72e7
CG7903 | DRSC16338 | 4.20e7 | 5.52e7 | 2.20e7 | 2.51e7
CG9997 | DRSC16591 | 4.20e7 | 5.11e7 | 1.93e7 | 2.04e7
CG3164 | DRSC00572 | 3.98e7 | 4.60e7 | 1.86e7 | 1.88e7
CG9897 + asRNA:CR42742 | DRSC04595 | 5.16e7 | 4.94e7 | 2.46e7 | 2.30e7
Argl + CG9515 | DRSC03243 | 6.25e7 | – | 2.68e7 | –
Argl + CG9515 | DRSC03245 | 3.00e7 | 4.24e7 | 1.40e7 | 1.84e7
CG12964 | DRSC06266 | 3.70e7 | 2.51e7 | 2.11e7 | 1.37e7
CG12964 | DRSC23210 | 4.72e7 | 3.76e7 | 2.51e7 | 1.79e7
Prp3 | DRSC10912 | 2.36e7 | 2.84e7 | 1.48e7 | 1.69e7
Obp69a | DRSC11247 | 3.56e7 | 3.22e7 | 1.83e7 | 1.45e7
Drsl4 | DRSC08034 | 3.05e7 | 4.33e7 | 1.49e7 | 1.67e7
CG31229 | DRSC13309 | 2.41e7 | 2.17e7 | 1.42e7 | 1.16e7
CG13038 | DRSC09919 | 8.43e7 | 8.77e7 | 3.07e7 | 3.12e7
ths | DRSC06153 | 3.18e7 | 3.75e7 | 1.84e7 | 2.11e7
ths | DRSC23123 | 3.75e7 | 4.57e7 | 1.72e7 | 1.76e7
